Reference: PMC4370480
No constants are given. Whether binding was seen depends on the method and setting. In cells and extracts the contact can be indirect. Some binding calls cover weakened binding; strength is not graded here.

Sequences of proteins named here, by UniProt entry; tags and fusion partners are left off. A change or cut given only in a name is not applied to a line headed by its entry.
UniProt P13569: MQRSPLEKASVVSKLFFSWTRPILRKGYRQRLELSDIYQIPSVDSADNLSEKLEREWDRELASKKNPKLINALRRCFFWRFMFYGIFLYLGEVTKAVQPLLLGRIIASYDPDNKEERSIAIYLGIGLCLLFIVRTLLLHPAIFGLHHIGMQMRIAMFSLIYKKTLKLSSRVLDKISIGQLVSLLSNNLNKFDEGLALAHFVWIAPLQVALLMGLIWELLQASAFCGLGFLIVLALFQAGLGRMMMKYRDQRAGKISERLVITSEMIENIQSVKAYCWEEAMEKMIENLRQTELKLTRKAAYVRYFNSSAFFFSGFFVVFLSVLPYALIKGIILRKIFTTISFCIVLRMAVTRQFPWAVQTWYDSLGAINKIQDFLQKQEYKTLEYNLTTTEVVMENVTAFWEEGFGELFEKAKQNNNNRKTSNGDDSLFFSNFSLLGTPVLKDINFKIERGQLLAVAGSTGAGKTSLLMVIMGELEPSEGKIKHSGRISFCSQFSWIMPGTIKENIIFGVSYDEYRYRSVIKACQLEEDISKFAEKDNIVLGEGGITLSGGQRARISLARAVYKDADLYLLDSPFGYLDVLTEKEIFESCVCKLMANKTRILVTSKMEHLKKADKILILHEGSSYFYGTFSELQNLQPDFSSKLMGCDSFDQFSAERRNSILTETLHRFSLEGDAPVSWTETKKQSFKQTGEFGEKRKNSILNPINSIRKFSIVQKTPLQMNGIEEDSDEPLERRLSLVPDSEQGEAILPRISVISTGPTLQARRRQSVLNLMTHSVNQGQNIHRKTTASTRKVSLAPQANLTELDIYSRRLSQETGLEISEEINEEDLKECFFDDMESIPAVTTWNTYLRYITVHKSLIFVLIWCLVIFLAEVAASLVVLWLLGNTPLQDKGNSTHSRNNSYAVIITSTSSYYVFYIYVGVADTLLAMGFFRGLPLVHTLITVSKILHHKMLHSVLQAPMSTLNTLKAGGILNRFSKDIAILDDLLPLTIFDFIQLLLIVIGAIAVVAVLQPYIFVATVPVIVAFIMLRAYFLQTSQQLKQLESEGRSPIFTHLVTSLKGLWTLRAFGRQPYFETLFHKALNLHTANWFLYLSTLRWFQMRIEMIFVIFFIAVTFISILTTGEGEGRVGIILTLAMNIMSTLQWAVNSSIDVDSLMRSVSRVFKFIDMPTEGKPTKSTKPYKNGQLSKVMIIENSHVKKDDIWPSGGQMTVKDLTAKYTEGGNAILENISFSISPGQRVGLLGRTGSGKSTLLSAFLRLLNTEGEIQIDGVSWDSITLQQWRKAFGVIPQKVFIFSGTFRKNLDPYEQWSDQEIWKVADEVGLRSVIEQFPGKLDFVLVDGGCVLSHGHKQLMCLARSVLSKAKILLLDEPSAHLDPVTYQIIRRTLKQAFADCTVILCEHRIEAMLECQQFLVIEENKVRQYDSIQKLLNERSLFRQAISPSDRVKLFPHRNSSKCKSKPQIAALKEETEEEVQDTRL
UniProt P04792: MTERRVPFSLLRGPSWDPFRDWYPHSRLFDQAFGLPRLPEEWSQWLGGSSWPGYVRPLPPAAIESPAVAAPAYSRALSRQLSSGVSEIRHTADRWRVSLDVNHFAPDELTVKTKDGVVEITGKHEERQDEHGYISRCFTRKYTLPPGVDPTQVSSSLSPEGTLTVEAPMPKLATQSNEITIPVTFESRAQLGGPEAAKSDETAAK
UniProt Q9UBN7: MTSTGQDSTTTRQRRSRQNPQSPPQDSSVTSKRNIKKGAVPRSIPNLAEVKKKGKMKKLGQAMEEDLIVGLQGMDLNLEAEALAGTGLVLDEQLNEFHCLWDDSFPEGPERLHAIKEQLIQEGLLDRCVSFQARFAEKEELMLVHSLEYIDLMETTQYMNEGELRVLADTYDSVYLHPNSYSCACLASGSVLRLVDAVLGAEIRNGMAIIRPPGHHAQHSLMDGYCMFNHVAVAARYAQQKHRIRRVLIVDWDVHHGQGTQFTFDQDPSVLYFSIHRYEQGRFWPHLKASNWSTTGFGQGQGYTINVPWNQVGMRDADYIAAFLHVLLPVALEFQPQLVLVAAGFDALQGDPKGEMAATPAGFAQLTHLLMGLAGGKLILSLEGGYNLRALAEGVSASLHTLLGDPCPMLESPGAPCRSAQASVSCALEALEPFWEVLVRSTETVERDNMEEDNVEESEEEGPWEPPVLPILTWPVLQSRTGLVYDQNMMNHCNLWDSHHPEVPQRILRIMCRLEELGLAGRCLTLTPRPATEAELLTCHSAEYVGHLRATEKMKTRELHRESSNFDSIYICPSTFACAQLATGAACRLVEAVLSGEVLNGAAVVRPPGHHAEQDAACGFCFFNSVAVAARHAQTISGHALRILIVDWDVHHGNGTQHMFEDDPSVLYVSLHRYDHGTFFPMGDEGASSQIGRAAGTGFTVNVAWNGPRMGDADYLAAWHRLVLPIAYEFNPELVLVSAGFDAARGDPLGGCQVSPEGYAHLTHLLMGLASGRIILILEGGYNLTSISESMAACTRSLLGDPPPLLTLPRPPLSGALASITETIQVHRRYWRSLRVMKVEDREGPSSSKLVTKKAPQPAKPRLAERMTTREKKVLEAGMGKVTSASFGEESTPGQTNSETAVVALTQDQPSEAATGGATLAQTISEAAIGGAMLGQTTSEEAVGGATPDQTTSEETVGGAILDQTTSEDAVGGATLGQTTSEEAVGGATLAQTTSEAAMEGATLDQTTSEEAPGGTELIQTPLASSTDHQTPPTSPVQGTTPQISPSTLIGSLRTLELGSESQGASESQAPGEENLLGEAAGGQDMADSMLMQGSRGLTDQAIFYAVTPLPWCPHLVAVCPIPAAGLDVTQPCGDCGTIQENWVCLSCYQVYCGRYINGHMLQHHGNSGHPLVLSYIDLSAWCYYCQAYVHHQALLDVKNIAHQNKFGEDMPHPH

How the values were obtained:
[1] = biological target: S1235R CFTR (cystic fibrosis transmembrane conductance regulator, NBD2 mutant S1235R) (UniProt P13569); test: co-IP; CFTR mutant immunoprecipitated with anti-CFTR antibody M3A7 and protein A/G-agarose beads from 2000 ug lysate of HEK 293 stable cell lines (50 mM NaCl, 150 mM Tris-HCl pH 7.4, 1% Nonidet P-40), 4 h at 4°C; blotted for each partner; cells untreated or treated with correctors C3+C4 (5 uM, 16 h), which reduced the binding
[2] = biological target: N1303K CFTR (cystic fibrosis transmembrane conductance regulator, NBD2 mutant N1303K) (UniProt P13569); test: as above

Row | binding [1] | binding [2] | Substance
1 | binds | binds | VCP protein (from UniProt P55072 1-806)
2 | binds | binds | heat shock protein 27 (from UniProt P04792 1-205)
3 | binds | binds | HDAC6 (from UniProt Q9UBN7 1-1215)
